Reference: the supplement of paper PMC10032668
The list shows a part of the results. The list holds hits alone, and they repeat only in part.

Protein sequences, listed by entry. Tags and fused reporters are not part of them.
ATP6V1A, P38606, UniProt P38606, whole entry: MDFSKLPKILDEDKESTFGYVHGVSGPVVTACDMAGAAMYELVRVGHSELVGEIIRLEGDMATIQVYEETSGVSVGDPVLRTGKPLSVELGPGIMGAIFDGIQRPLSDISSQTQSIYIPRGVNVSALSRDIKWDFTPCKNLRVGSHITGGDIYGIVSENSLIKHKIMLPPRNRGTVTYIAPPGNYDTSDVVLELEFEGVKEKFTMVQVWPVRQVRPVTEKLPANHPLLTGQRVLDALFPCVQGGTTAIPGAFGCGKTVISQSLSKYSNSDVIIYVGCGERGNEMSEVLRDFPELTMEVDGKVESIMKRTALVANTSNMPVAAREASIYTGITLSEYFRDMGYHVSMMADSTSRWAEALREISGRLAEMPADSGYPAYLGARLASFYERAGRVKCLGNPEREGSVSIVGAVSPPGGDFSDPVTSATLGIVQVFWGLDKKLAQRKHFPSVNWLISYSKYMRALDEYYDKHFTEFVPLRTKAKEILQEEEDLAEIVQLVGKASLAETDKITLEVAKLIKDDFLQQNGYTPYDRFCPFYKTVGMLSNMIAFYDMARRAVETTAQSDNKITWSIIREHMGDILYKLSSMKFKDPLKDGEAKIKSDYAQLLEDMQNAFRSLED
CDC27, P30260, UniProt P30260, whole entry: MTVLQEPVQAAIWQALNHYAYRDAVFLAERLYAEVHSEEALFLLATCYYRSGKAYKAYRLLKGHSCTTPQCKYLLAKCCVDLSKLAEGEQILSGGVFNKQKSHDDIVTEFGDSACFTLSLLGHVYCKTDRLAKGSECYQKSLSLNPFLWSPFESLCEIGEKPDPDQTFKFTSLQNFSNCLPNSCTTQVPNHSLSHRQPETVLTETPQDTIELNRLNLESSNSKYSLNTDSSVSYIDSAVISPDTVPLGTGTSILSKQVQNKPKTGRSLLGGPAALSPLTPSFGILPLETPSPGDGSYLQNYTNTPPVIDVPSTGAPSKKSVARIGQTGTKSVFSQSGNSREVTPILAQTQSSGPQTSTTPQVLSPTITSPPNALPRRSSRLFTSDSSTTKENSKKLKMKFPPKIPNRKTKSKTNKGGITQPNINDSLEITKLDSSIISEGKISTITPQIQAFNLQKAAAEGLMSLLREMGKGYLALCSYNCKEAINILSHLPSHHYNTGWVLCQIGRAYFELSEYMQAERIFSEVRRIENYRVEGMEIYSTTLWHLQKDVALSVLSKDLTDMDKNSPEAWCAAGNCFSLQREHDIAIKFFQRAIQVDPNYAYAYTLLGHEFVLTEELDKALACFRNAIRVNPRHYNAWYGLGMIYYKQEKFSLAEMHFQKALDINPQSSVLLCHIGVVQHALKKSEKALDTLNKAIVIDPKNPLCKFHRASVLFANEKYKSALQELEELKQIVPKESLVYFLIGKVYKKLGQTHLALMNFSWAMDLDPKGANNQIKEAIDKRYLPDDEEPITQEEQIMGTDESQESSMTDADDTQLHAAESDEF
DCTN5, Q9BTE1, UniProt Q9BTE1, whole entry: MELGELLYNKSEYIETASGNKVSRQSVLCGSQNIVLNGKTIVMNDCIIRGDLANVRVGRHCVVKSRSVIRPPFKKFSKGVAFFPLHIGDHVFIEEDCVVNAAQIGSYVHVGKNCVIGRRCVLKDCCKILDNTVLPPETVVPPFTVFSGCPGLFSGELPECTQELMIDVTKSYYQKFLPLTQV
EIF3K, Q9UBQ5, UniProt Q9UBQ5, whole entry: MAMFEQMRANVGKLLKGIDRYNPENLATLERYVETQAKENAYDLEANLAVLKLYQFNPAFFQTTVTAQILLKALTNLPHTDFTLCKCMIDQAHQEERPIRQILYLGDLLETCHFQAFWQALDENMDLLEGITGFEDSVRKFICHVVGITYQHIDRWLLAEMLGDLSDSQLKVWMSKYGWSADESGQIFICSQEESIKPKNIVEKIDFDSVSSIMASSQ
EIF3M, Q7L2H7, UniProt Q7L2H7, whole entry: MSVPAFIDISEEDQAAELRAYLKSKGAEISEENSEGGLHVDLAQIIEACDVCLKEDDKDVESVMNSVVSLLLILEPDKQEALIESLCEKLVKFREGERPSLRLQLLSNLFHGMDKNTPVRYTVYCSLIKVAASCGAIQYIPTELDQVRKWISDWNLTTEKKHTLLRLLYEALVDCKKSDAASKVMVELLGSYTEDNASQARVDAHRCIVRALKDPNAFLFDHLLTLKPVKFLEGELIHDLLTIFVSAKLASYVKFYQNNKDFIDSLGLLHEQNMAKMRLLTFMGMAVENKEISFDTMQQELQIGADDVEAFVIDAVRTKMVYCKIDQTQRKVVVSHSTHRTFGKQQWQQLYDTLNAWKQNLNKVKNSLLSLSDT
GNL1, P36915, UniProt P36915, whole entry: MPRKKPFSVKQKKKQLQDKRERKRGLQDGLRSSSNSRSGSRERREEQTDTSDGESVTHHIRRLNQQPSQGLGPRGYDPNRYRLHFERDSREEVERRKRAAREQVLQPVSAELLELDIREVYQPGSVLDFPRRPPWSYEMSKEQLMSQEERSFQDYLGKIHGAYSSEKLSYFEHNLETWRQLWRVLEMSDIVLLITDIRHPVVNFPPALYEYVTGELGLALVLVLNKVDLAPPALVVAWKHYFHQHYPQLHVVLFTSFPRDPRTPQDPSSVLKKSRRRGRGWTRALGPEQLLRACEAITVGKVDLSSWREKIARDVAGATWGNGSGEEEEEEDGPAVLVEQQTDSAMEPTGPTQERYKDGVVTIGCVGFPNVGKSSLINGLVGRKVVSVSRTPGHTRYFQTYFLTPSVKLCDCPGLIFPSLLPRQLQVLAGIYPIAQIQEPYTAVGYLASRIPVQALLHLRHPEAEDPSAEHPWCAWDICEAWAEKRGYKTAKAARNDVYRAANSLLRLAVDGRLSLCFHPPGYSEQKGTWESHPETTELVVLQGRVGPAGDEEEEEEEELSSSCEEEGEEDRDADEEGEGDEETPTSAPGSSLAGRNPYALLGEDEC
HSPB1, P04792, UniProt P04792, whole entry: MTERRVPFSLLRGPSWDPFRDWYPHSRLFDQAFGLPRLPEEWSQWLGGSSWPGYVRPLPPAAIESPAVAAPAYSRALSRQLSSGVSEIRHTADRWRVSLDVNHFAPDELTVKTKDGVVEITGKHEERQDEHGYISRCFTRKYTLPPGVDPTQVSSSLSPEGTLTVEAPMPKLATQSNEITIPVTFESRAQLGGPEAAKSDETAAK
KPNA3, O00505, UniProt O00505, whole entry: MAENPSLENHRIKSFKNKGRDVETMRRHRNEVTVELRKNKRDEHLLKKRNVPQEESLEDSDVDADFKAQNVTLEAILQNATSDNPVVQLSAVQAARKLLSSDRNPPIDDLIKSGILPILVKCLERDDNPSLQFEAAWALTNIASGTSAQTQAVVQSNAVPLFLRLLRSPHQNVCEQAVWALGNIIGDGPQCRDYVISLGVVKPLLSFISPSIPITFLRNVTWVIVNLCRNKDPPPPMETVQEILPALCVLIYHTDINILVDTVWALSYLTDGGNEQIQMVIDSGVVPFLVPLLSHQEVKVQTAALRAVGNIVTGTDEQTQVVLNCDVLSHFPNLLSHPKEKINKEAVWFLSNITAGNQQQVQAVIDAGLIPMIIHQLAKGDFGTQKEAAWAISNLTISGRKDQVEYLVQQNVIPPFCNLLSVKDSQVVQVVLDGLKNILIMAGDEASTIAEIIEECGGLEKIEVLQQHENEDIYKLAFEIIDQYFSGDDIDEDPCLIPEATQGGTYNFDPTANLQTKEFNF
MECP2, P51608, UniProt P51608, whole entry: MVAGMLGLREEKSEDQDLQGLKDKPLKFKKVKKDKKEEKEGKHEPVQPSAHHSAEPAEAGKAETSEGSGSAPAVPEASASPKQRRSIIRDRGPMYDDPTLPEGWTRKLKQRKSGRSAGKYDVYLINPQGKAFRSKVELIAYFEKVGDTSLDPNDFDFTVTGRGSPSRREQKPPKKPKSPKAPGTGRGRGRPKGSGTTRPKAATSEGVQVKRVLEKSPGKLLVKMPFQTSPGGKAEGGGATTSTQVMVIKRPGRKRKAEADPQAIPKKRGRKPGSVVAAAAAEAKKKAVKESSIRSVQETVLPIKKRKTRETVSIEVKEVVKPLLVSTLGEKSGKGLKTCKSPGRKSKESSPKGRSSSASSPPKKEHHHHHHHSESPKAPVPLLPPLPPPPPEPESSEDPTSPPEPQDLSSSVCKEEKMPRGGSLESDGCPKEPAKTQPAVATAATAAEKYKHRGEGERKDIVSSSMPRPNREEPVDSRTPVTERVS
NELFB, Q8WX92, UniProt Q8WX92, whole entry: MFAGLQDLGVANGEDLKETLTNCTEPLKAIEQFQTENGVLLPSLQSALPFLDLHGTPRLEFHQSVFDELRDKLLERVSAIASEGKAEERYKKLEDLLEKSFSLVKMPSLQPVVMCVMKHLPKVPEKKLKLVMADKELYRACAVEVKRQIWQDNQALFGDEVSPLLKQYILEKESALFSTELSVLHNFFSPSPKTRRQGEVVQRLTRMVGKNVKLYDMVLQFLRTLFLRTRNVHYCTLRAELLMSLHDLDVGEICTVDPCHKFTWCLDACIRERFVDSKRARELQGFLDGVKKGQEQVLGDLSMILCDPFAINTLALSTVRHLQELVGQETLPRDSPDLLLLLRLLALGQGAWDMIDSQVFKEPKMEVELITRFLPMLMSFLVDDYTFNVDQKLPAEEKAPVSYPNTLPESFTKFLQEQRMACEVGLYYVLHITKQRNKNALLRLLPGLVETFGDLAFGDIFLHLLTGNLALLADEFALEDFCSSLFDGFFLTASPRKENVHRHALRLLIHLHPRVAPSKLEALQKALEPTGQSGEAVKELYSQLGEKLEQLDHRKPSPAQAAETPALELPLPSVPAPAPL
PDHA1, P08559, UniProt P08559, whole entry: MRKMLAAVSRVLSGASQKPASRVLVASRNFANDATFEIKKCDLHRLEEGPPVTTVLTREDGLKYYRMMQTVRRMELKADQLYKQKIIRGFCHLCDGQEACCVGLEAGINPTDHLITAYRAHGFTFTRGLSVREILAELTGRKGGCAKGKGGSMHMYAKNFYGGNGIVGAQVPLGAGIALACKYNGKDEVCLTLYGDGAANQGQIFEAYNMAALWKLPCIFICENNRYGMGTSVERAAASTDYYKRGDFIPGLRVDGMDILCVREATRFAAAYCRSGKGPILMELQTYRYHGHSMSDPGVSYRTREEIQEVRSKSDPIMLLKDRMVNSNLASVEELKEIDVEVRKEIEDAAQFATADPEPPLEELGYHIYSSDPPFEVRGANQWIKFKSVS
PPP2R5D, Q14738, UniProt Q14738, whole entry: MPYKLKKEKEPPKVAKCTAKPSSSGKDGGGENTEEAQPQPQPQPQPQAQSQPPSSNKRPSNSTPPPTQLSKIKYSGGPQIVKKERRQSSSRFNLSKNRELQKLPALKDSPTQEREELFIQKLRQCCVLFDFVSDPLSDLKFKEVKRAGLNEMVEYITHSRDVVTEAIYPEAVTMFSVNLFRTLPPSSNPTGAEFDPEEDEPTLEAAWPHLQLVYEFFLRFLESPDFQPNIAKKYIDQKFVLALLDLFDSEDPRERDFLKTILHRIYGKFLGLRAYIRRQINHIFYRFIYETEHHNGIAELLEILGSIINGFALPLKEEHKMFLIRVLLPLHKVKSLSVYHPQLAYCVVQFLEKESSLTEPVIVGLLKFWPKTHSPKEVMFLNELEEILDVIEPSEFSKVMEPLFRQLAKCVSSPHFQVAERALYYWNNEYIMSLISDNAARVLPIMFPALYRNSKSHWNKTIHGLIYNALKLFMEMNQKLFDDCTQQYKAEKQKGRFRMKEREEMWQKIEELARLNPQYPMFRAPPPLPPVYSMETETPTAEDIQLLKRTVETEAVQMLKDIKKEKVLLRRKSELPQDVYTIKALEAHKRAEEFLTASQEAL

Key:
Test in all cases: PRISMA enrichment of interactor (LFQ) in peptide spot vs all other peptide spots (log2 fold change); higher = stronger / more specific binding of the interactor to the peptide
[1] = target: ADRM1, Q16186
Procedure: (§1)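 PRISMA: 15-aa overlapping tiles (offset 8 aa) of 60 microproteins, plus SOS1/GLUT1 control peptides, were spot-synthesized on cellulose membranes in triplicate. Membranes were incubated with benzonase-treated HEK293T lysate, and bound proteins were identified by LC-MS/MS with LFQ. Enrichment is the log2 fold change of each protein in one spot versus all other spots. Only interactors passing the significance cutoff are listed.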

[2] = target: ARMC6, Q6NXE6
Procedure: as §1

[3] = target: ATP6V1A, P38606
Procedure: as §1

[4] = target: CDC27, P30260
Procedure: as §1

[5] = target: CIRBP, Q14011
Procedure: as §1

[6] = target: CPS1, P31327
Procedure: as §1

[7] = target: DAP3, P51398
Procedure: as §1

[8] = target: DCTN5, Q9BTE1
Procedure: as §1

[9] = target: DEK, P35659
Procedure: as §1

[10] = target: DLST, P36957
Procedure: as §1

[11] = target: EIF3K, Q9UBQ5
Procedure: as §1

[12] = target: EIF3M, Q7L2H7
Procedure: as §1

[13] = target: FKBP8, Q14318
Procedure: as §1

[14] = target: FLOT2, Q14254
Procedure: as §1

[15] = target: GCFC2, P16383
Procedure: as §1

[16] = target: GNL1, P36915
Procedure: as §1

[17] = target: HNRNPF, P52597
Procedure: as §1

[18] = target: HPRT1, P00492
Procedure: as §1

[19] = target: HSPB1, P04792
Procedure: as §1

[20] = target: KPNA3, O00505
Procedure: as §1

[21] = target: LRRC40, Q9H9A6
Procedure: as §1

[22] = target: MACF1
Procedure: as §1

[23] = target: MECP2, P51608
Procedure: as §1

[24] = target: MRPL58, Q14197
Procedure: as §1

[25] = target: MRPS28, Q9Y2Q9
Procedure: as §1

[26] = target: NELFB, Q8WX92
Procedure: as §1

[27] = target: NOP14, P78316
Procedure: as §1

[28] = target: NSD2, O96028
Procedure: as §1

[29] = target: NTMT1, Q9BV86
Procedure: as §1

[30] = target: PCM1, Q15154
Procedure: as §1

[31] = target: PDHA1, P08559
Procedure: as §1

[32] = target: PDLIM1, O00151
Procedure: as §1

[33] = target: PDP1, Q9P0J1
Procedure: as §1

[34] = target: PHF3, Q92576
Procedure: as §1

[35] = target: POLR2H, P52434
Procedure: as §1

[36] = target: PPP2R5D, Q14738
Procedure: as §1

[37] = target: PUS1, Q9Y606
Procedure: as §1

[38] = target: RAVER1, Q8IY67
Procedure: as §1

[39] = target: SYNCRIP, O60506
Procedure: as §1

[40] = target: TALDO1, P37837
Procedure: as §1

[41] = target: TARS, P26639
Procedure: as §1

[42] = target: TMEM263, Q8WUH6
Procedure: as §1

[43] = target: TRIM27, P14373
Procedure: as §1

[44] = target: TTF2, Q9UNY4
Procedure: as §1

[45] = target: VRK1, Q99986
Procedure: as §1

[46] = target: WBP11, Q9Y2W2
Procedure: as §1

[47] = target: ZC2HC1A, Q96GY0
Procedure: as §1

B1: IDI2-AS1 (peptide)
chain: ALPLLSSLCMAMVRK
With B1 as the binder, how does the “PRISMA enrichment of interactor (log2)” value [1] read?
Its value is 4.41.

What about the “PRISMA enrichment of interactor (log2)” value [2] of the same binder?
Its value is 7.43.

And the “PRISMA enrichment of interactor (log2)” value [3]?
Its value is 4.65.

And the “PRISMA enrichment of interactor (log2)” value [4]?
Its value is 7.07.

What about the “PRISMA enrichment of interactor (log2)” value [5] of the same binder?
Its value is 4.98.

What about the “PRISMA enrichment of interactor (log2)” value [6] of the same binder?
The value was 5.95.

And the “PRISMA enrichment of interactor (log2)” value [7]?
The value was 4.48.

And the “PRISMA enrichment of interactor (log2)” value [8]?
Its value is 5.

What about the “PRISMA enrichment of interactor (log2)” value [9] of the same binder?
The value was 7.69.

And the “PRISMA enrichment of interactor (log2)” value [10]?
Its value is 5.83.

And the “PRISMA enrichment of interactor (log2)” value [11]?
The value was 6.49.

And the “PRISMA enrichment of interactor (log2)” value [12]?
Its value is 4.66.

And the “PRISMA enrichment of interactor (log2)” value [13]?
The value was 5.13.

And the “PRISMA enrichment of interactor (log2)” value [14]?
Its value is 4.36.

What about the “PRISMA enrichment of interactor (log2)” value [15] of the same binder?
Its value is 6.84.

What about the “PRISMA enrichment of interactor (log2)” value [16] of the same binder?
The value was 6.23.

And the “PRISMA enrichment of interactor (log2)” value [17]?
Its value is 5.11.

And the “PRISMA enrichment of interactor (log2)” value [18]?
The value was 6.13.

And the “PRISMA enrichment of interactor (log2)” value [19]?
Its value is 4.92.

What about the “PRISMA enrichment of interactor (log2)” value [20] of the same binder?
Its value is 4.63.

And the “PRISMA enrichment of interactor (log2)” value [21]?
The value was 5.

What about the “PRISMA enrichment of interactor (log2)” value [22] of the same binder?
The value was 8.34.

What about the “PRISMA enrichment of interactor (log2)” value [23] of the same binder?
The value was 3.68.

And the “PRISMA enrichment of interactor (log2)” value [24]?
The value was 4.09.

And the “PRISMA enrichment of interactor (log2)” value [25]?
Its value is 4.82.

And the “PRISMA enrichment of interactor (log2)” value [26]?
The value was 4.95.

What about the “PRISMA enrichment of interactor (log2)” value [27] of the same binder?
Its value is 6.8.

What about the “PRISMA enrichment of interactor (log2)” value [28] of the same binder?
The value was 5.7.

And the “PRISMA enrichment of interactor (log2)” value [29]?
The value was 4.94.

And the “PRISMA enrichment of interactor (log2)” value [30]?
The value was 4.19.

What about the “PRISMA enrichment of interactor (log2)” value [31] of the same binder?
The value was 5.19.

And the “PRISMA enrichment of interactor (log2)” value [32]?
Its value is 4.31.

What about the “PRISMA enrichment of interactor (log2)” value [33] of the same binder?
Its value is 4.09.

What about the “PRISMA enrichment of interactor (log2)” value [34] of the same binder?
The value was 5.3.

What about the “PRISMA enrichment of interactor (log2)” value [35] of the same binder?
Its value is 7.56.

What about the “PRISMA enrichment of interactor (log2)” value [36] of the same binder?
The value was 4.71.

What about the “PRISMA enrichment of interactor (log2)” value [37] of the same binder?
The value was 9.25.

What about the “PRISMA enrichment of interactor (log2)” value [38] of the same binder?
The value was 5.6.

What about the “PRISMA enrichment of interactor (log2)” value [39] of the same binder?
The value was 4.75.

What about the “PRISMA enrichment of interactor (log2)” value [40] of the same binder?
The value was 4.24.

And the “PRISMA enrichment of interactor (log2)” value [41]?
Its value is 4.8.

What about the “PRISMA enrichment of interactor (log2)” value [42] of the same binder?
The value was 5.8.

And the “PRISMA enrichment of interactor (log2)” value [43]?
Its value is 7.19.

And the “PRISMA enrichment of interactor (log2)” value [44]?
Its value is 6.03.

And the “PRISMA enrichment of interactor (log2)” value [45]?
Its value is 5.01.

And the “PRISMA enrichment of interactor (log2)” value [46]?
The value was 6.1.

What about the “PRISMA enrichment of interactor (log2)” value [47] of the same binder?
The value was 4.64.
